PubChem BioAssay AID662 (National Center for Advancing Translational Sciences (NCATS), 2007)
The other results are listed elsewhere or left out. The main result of the screen is listed elsewhere. These columns were measured beside it and carry no call. Compounds called inactive in the main read-out are mostly missing here. The note in brackets gives the kind of curve behind each potency; many fits are weak.

Assay: Cell signaling CRE-BLA (Fsk stim)
Conditions: CHO CRE-bla reporter (cAMP response element driving beta-lactamase), forskolin EC10, beta-lactamase ratio; measured here: 460 nm blue channel
Outline: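 Modulation of forskolin signalling: compounds in titration series added with EC10 NKH 477 to CHO cells carrying a CRE-driven beta-lactamase reporter, 3 h, 37C. CCF4 FRET ratio (460/530 nm, ex 405 nm) gives %activity and AC50.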

| Compound | AC50 |
| --- | --- |
| O=C(NCc1ccco1)c1c2c(nc3ccccc13)CCC2 | 0.631 µM [falling, full curve, poor fit] |
| COC(=O)c1ccc(CSc2ncn[nH]2)o1 | 1.26 µM [rising, full curve] |
| CCNc1ncc2nc(CCc3ccccc3)c(=O)n(CCOC)c2n1 | 12.6 µM [rising, partial curve] |
| COc1cc(-c2nnc(SCC#CCO)o2)cc(OC)c1OC | 10 µM [rising, single point] |
| CCN(c1ccccc1)c1nc2ccsc2c(=O)s1 | 0.00398 µM [falling, full curve, poor fit] |
| O=c1c2[nH]c3ccc(F)cc3c2ncn1CCCN1CCOCC1 | 25.1 µM [rising, single point] |
| Cc1ccc(N(CC(=O)Nc2cccc(C)c2)S(=O)(=O)c2cccc3nonc23)cc1 | 15.8 µM [falling, partial curve] |
| Cn1c(=O)c2c(ncn2C)n(C)c1=O | 15.8 µM [rising, partial curve, poor fit] |
| CCOc1cc(-c2c(C)c(C)nc(N)c2C#N)ccc1O | 10 µM [rising, partial curve] |
| CCCN(Cc1cc2cc(C)ccc2[nH]c1=O)S(C)(=O)=O | 5.01 µM [falling, single point] |
| Cn1c(=O)c2c(SCC(=O)N3CCCc4ccccc43)nc(C3CC3)nc2n(C)c1=O | 3.98 µM [rising, partial curve] |
| O=C(O)CC(Cc1ccccc1)c1ccc2c(c1)OCO2 (centres undefined) | 0.00316 µM [falling, full curve, poor fit] |
| COc1ccc(N2CCN(CCNC(=O)C3CCN(S(=O)(=O)c4cccs4)CC3)CC2)cc1 | 0.0398 µM [falling, full curve, poor fit] |
| O=C(NCCc1c[nH]c2ccccc12)C(F)(F)C(F)F | 3.16 µM [falling, full curve] |
| CC(O)c1cccc(NC(=O)CCC(=O)O)c1 (centres undefined) | 0.0158 µM [falling, full curve] |
| COc1cccc2c(C)c(C(=O)O)[nH]c12 | 0.00398 µM [falling, full curve, poor fit] |
| Cc1cc(C)c2nc(-c3ccccn3)cc(C(=O)NCc3ccco3)c2c1 | 10 µM [falling, single point] |
| CCNc1nc(SC(C)C(=O)Nc2ccccc2)nc(N2CCOCC2)n1 (centres undefined) | 12.6 µM [rising, partial curve] |
| CCn1c(SCC(=O)Nc2ccc(NC(=O)c3ccco3)c(OC)c2)nc2ccccc2c1=O | 1 µM [rising, partial curve] |
| CCCn1c(C)nc2c(N3CCOCC3)nc(C)nc21 | 12.6 µM [rising, partial curve] |
| COc1cc(-c2nc(S(=O)(=O)c3ccc(Cl)cc3)c(N3CCOCC3)o2)cc(OC)c1OC | 1 µM [rising, partial curve] |
| CSc1nc2ccc(Nc3nc(N4CCOCC4)nc(N4CCOCC4)n3)cc2s1 | 3.16 µM [rising, partial curve] |
| N#Cc1nc(-c2ccc(OCc3ccccc3)cc2)oc1NCCN1CCOCC1 | 5.01 µM [rising, partial curve] |

Some of the entries so far, as tab-separated lines.
Compound	AC50
O=C(NCc1ccco1)c1c2c(nc3ccccc13)CCC2	0.631 µM [falling, full curve, poor fit]
COC(=O)c1ccc(CSc2ncn[nH]2)o1	1.26 µM [rising, full curve]
CCNc1ncc2nc(CCc3ccccc3)c(=O)n(CCOC)c2n1	12.6 µM [rising, partial curve]
COc1cc(-c2nnc(SCC#CCO)o2)cc(OC)c1OC	10 µM [rising, single point]
CCN(c1ccccc1)c1nc2ccsc2c(=O)s1	0.00398 µM [falling, full curve, poor fit]
O=c1c2[nH]c3ccc(F)cc3c2ncn1CCCN1CCOCC1	25.1 µM [rising, single point]
Cc1ccc(N(CC(=O)Nc2cccc(C)c2)S(=O)(=O)c2cccc3nonc23)cc1	15.8 µM [falling, partial curve]
Cn1c(=O)c2c(ncn2C)n(C)c1=O	15.8 µM [rising, partial curve, poor fit]
CCOc1cc(-c2c(C)c(C)nc(N)c2C#N)ccc1O	10 µM [rising, partial curve]
CCCN(Cc1cc2cc(C)ccc2[nH]c1=O)S(C)(=O)=O	5.01 µM [falling, single point]
Cn1c(=O)c2c(SCC(=O)N3CCCc4ccccc43)nc(C3CC3)nc2n(C)c1=O	3.98 µM [rising, partial curve]
O=C(O)CC(Cc1ccccc1)c1ccc2c(c1)OCO2 (centres undefined)	0.00316 µM [falling, full curve, poor fit]
COc1ccc(N2CCN(CCNC(=O)C3CCN(S(=O)(=O)c4cccs4)CC3)CC2)cc1	0.0398 µM [falling, full curve, poor fit]
O=C(NCCc1c[nH]c2ccccc12)C(F)(F)C(F)F	3.16 µM [falling, full curve]
CC(O)c1cccc(NC(=O)CCC(=O)O)c1 (centres undefined)	0.0158 µM [falling, full curve]
COc1cccc2c(C)c(C(=O)O)[nH]c12	0.00398 µM [falling, full curve, poor fit]
Cc1cc(C)c2nc(-c3ccccn3)cc(C(=O)NCc3ccco3)c2c1	10 µM [falling, single point]
CCNc1nc(SC(C)C(=O)Nc2ccccc2)nc(N2CCOCC2)n1 (centres undefined)	12.6 µM [rising, partial curve]
CCn1c(SCC(=O)Nc2ccc(NC(=O)c3ccco3)c(OC)c2)nc2ccccc2c1=O	1 µM [rising, partial curve]
CCCn1c(C)nc2c(N3CCOCC3)nc(C)nc21	12.6 µM [rising, partial curve]
COc1cc(-c2nc(S(=O)(=O)c3ccc(Cl)cc3)c(N3CCOCC3)o2)cc(OC)c1OC	1 µM [rising, partial curve]

Additional records

| Compound | AC50 |
| --- | --- |
| COc1ccc(CNc2oc(-c3cccc4ccccc34)nc2C#N)cc1 | 10 µM [rising, partial curve] |
| CCn1c(COc2ccc(Cl)cc2)nnc1SCc1ccc(C#N)cc1 | 12.6 µM [falling, single point] |
| CCC(=O)Nc1nc2ccc3nc(C)sc3c2s1 | 6.31 µM [rising, partial curve] |
| N=c1n(Cc2ccccc2)c2ccccc2n1CC(O)c1ccco1 (centres undefined) | 7.94 µM [falling, partial curve] |
| Cc1cc(C)nc(Nc2ccccc2Br)n1 | 5.01 µM [falling, single point] |
| O=C(Nc1ccccc1N1CCCCC1)c1ccc2nccnc2c1 | 10 µM [rising, partial curve] |
| C=CCn1c(SCC(=O)NC2CCCC2)nc2scc(-c3ccco3)c2c1=O | 12.6 µM [falling, single point] |
| Cc1ncoc1C(=O)NCc1ccccc1Cl | 3.16 µM [falling, single point] |
| CCOc1ccccc1-n1c(SCC(N)=O)nc2ccccc2c1=O | 0.126 µM [falling, single point] |
| COC(=O)c1ccc(NC(=O)CSc2nnc(CNc3ccc(F)cc3)n2C)cc1 | 25.1 µM [falling, single point] |
| Cn1c(=O)c2c(nc(NCCCO)n2C/C=C/c2ccccc2)n(C)c1=O | 20 µM [rising, single point] |
| Cc1nc(S(=O)(=O)N(C)c2ccccc2)c(C#N)c(C)c1Cl | 1 µM [falling, partial curve] |
| CCOc1cc(N2CCOCC2)c(OCC)cc1NS(=O)(=O)c1ccc(Cl)s1 | 3.16 µM [rising, partial curve] |
| COc1ccc(NC(=O)c2ccco2)cc1NC(=O)c1ccc(Br)o1 | 12.6 µM [rising, partial curve] |
| FC(F)(F)c1cccc(N2Cc3ccccc3C2)c1 | 25.1 µM [rising, single point] |
| C=CCN1CC(c2nc3ccccc3n2CCOc2ccccc2)CC1=O (centres undefined) | 20 µM [rising, single point] |
| CCCNc1nc2c(c(=O)n(C)c(=O)n2C)n1CCC(C)C | 12.6 µM [rising, single point] |
| Cc1ccc(NC(=O)CSc2nc3nc(C)cc(C)c3c(=O)[nH]2)cc1 | 3.16 µM [rising, full curve] |
| COc1ccc(-c2nnc(-c3ccc(Br)o3)o2)cc1OC | 25.1 µM [rising, single point] |
| CCOC(=O)NC(=O)CSc1nc2ccc(OCC)cc2[nH]1 | 0.126 µM [falling, single point] |
| CCOc1cc(C2c3c(oc4cc(C)c(Cl)cc4c3=O)C(=O)N2Cc2ccco2)ccc1O (centres undefined) | 25.1 µM [rising, partial curve] |
| COc1ccc(-c2cc(-c3c(O)c(OC)c4occc4c3OC)[nH]n2)cc1OC | 10 µM [rising, partial curve] |
| CC(=O)c1ccc(N2CCN(C(=O)c3cc4c(=O)n(C)c5ccccc5c4n3C)CC2)cc1 | 7.94 µM [rising, partial curve] |

Reprinted at random: 2 compounds from above.

| Compound | AC50 |
| --- | --- |
| C=CCn1c(SCC(=O)NC2CCCC2)nc2scc(-c3ccco3)c2c1=O | 12.6 µM [falling, single point] |
| COc1ccc(-c2nnc(-c3ccc(Br)o3)o2)cc1OC | 25.1 µM [rising, single point] |

More records.

| Compound | AC50 |
| --- | --- |
| CCCc1nc(S(=O)(=O)Cc2ccc(Cl)cc2Cl)n[nH]1 | 1.26 µM [falling, full curve, poor fit] |
| C#C[C@]1(O)CC[C@@H]2[C@H]3CCc4cc(OC)ccc4[C@@H]3CC[C@@]21C | 3.16 µM [rising, partial curve, poor fit] |
| Cc1nc2cnc(Oc3ccccc3)nc2n(-c2ccccc2)c1=O | 25.1 µM [rising, partial curve] |
| COc1cc(-c2nnc(SCC(=O)c3ccccc3)o2)cc(OC)c1OC | 7.94 µM [rising, partial curve] |
| O=C(CSc1nnc(-c2ccco2)o1)NC1CCCCC1 | 0.00316 µM [falling, full curve] |
| CN(C)c1ncc2nc(-c3cccs3)c(=O)n(C3CC3)c2n1 | 3.98 µM [rising, full curve] |
| Cn1c(=O)c2c(nc(Br)n2C)n(C)c1=O | 0.631 µM [rising, full curve, poor fit] |
| C=CCn1c(=O)n(CCOC)c(=O)c2sc3ccccc3c21 | 2.51 µM [rising, full curve] |
| CCOC(=O)C(C(C)=O)c1c(Br)c(O)c(O)c2c(C(=O)c3ccc(C)cc3)coc12 (centres undefined) | 15.8 µM [falling, partial curve] |
| COC(=O)CNC(=O)c1ccc2c(c1)S(=O)(=O)c1ccccc1C2=O | 2.51 µM [rising, partial curve] |
| ON1C(c2ccccc2C(F)(F)F)N(O)[C@H]2CCCC[C@H]21 (some centres undefined) | 0.398 µM [falling, full curve, poor fit] |
| COc1ccc2c(c1)C(=O)N(c1ccccc1OC)C(=O)C2(C)C | 5.01 µM [rising, full curve] |
| CCn1cc(C(=O)N2CCN(C3CCCCC3)CC2)c2cc(OC)c(OC)cc2c1=O | 12.6 µM [rising, partial curve] |
| Cn1c(=O)c(CCc2ccccc2)nc2cnc(Oc3ccccc3)nc21 | 15.8 µM [rising, partial curve] |
| CCn1cc(C(=O)NCCN(C)CCc2ccccc2)c(=O)c2cc(S(=O)(=O)N(C)C)ccc21 | 25.1 µM [rising, single point] |
| CCOc1cc(CN2CCN(c3ccc(C(C)=O)cc3)CC2)ccc1OC | 1 µM [falling, partial curve, poor fit] |
| CCn1c2ccccc2c2nnc(SCC(=O)Nc3ncccn3)nc21 | 12.6 µM [rising, partial curve] |
| C/C=C/Cn1c(SCCCc2ccccc2)nc2c1c(=O)[nH]c(=O)n2C | 25.1 µM [falling, single point] |
| CC1=C(/C=C/C(C)=C/C=C/C(C)=C/C=O)C(C)(C)CCC1 | 15.8 µM [falling, partial curve] |
| CCOc1ccc(N2CC(C(=O)NCc3ccc(F)cc3)CC2=O)cc1 (centres undefined) | 5.01 µM [falling, partial curve] |
| Cc1ccc(-n2nnc3c(=O)n(Cc4cccc(C)c4)cnc32)cc1 | 10 µM [rising, partial curve] |
| Cc1cc2ccccc2n1CCNC(=O)C(C)C | 12.6 µM [rising, partial curve] |
| CCc1nnc(NC(=O)C2Cc3ccccc3CN2S(=O)(=O)c2cccs2)s1 (centres undefined) | 0.02 µM [falling, full curve, poor fit] |
